{"source": "PubChem BioAssay AID493246 (Drosophila RNAi Screening Center, 2011)", "screen": "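Identify essential fly genes by loss of cell viability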 (primary screen)", "cell system": "Drosophila Kc and S2R+ cells", "reagent": "long dsRNA against Drosophila genes", "measured": "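Cell number per well after knock-down, printed as raw plate values; calls were based on per-plate z-scores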", "direction": "Kc cell number and S2R+ cell number: higher = more cells remaining", "active means": "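Active when the per-plate z-score of cell number is 3 or more in the direction of fewer cells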", "note": "The deposit covers about 21,000 reagents; below is a random part of those with a known target gene and a result. In the full data, 429 (2%) got an active call. 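Values are raw and not normalised between plates; calls rest on per-plate z-scores that were not deposited.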 Entries without a mark were called inactive. Reagents against one gene are numbered here. Names joined by + are all predicted targets of the reagent. Not stated in the record: the amount of reagent, the time to read-out."}
{"Target gene": "fry", "dsRNA no.": 1, "Kc cell number, rep 1": 1.58e6, "Kc cell number, rep 2": 1.56e6, "S2R+ cell number, rep 1": 1.19e6, "S2R+ cell number, rep 2": 1.33e6}
{"Target gene": "fry", "dsRNA no.": 2, "Kc cell number, rep 1": 1.41e6, "Kc cell number, rep 2": 1.37e6, "S2R+ cell number, rep 1": 1.31e6, "S2R+ cell number, rep 2": 1.36e6}
{"Target gene": "fry", "dsRNA no.": 3, "Kc cell number, rep 1": 1.43e6, "Kc cell number, rep 2": 1.50e6, "S2R+ cell number, rep 1": 1.42e6, "S2R+ cell number, rep 2": 1.50e6}
{"Target gene": "fry", "dsRNA no.": 4, "Kc cell number, rep 1": 1.43e6, "Kc cell number, rep 2": 1.55e6, "S2R+ cell number, rep 1": 1.30e6, "S2R+ cell number, rep 2": 1.25e6}
{"Target gene": "CG18493", "dsRNA no.": 1, "Kc cell number, rep 1": 1.29e6, "Kc cell number, rep 2": 1.27e6, "S2R+ cell number, rep 1": 1.11e6, "S2R+ cell number, rep 2": 1.22e6}
{"Target gene": "CG12375", "dsRNA no.": 1, "Kc cell number, rep 1": 1.29e6, "Kc cell number, rep 2": 1.50e6, "S2R+ cell number, rep 1": 4.04e5, "S2R+ cell number, rep 2": 3.52e5}

Taken from above:
fry #1, Kc cell number, rep 2: 1.56e6
Value for CG12375 in “S2R+ cell number, rep 1”: 4.04e5

Continued.
{"Target gene": "CG11566 (retired record) + stg1", "dsRNA no.": 1, "Kc cell number, rep 1": 1.23e6, "Kc cell number, rep 2": 1.40e6, "S2R+ cell number, rep 1": 7.43e5, "S2R+ cell number, rep 2": 8.13e5}
{"Target gene": "CG11566 (retired record) + stg1", "dsRNA no.": 2, "Kc cell number, rep 1": 1.72e6, "Kc cell number, rep 2": 1.77e6, "S2R+ cell number, rep 1": 1.17e6, "S2R+ cell number, rep 2": 1.27e6}
{"Target gene": "CG11566 (retired record) + stg1", "dsRNA no.": 3, "Kc cell number, rep 1": 1.52e6, "Kc cell number, rep 2": 1.49e6, "S2R+ cell number, rep 1": 1.13e6, "S2R+ cell number, rep 2": 1.25e6}
{"Target gene": "CG11566 (retired record) + stg1", "dsRNA no.": 4, "Kc cell number, rep 1": 1.58e6, "Kc cell number, rep 2": 1.59e6, "S2R+ cell number, rep 1": 1.13e6, "S2R+ cell number, rep 2": 1.25e6}
{"Target gene": "CG10211", "dsRNA no.": 1, "Kc cell number, rep 1": 1.58e6, "Kc cell number, rep 2": 1.67e6, "S2R+ cell number, rep 1": 1.44e6, "S2R+ cell number, rep 2": 1.71e6}
{"Target gene": "CG31266", "dsRNA no.": 1, "Kc cell number, rep 1": 1.44e6, "Kc cell number, rep 2": 1.64e6, "S2R+ cell number, rep 1": 1.37e6, "S2R+ cell number, rep 2": 1.44e6}
